Values from PubChem BioAssay AID686938 (Drosophila RNAi Screening Center, 2013)

- Purpose: 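Knock-downs reducing store-operated calcium influx in Drosophila cells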 (primary screen)
- Cell system: Drosophila S2R+ cells
- Reagents: long dsRNA against Drosophila genes, about 0.25 µg dsRNA per well, roughly 10,000 cells
- Timing: 5 days of knock-down before the calcium assay
- Treatment: thapsigargin (SERCA pump blocker) to empty calcium stores; entry signal taken 4 min after adding it
- Measurement: 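Duplicate raw fluo-4 intensities per well from a plate reader, at rest and four minutes after thapsigargin emptied calcium stores; entry-to-rest ratio filled for only some wells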
- Scale: calcium entry signal: higher = stronger calcium signal after store depletion; entry to resting ratio: higher = more calcium entry relative to resting level; resting calcium signal: higher = higher resting calcium signal
- Units: calcium entry signal in fluorescence units; resting calcium signal in fluorescence units
- Active means: 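Hit if the duplicate-averaged plate z-score for entry over resting signal is under −3; wells with weak total dye signal (Fmax z < −2) or more than 5 off-targets removed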
- Calls: active = strongly reduced calcium entry; inactive = no strong reduction
The screen tested about 23,000 reagents; this is an unselected part of those that have a named target and a result. In the full data, 75 (0.33%) got an active call. 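Raw plate signals without normalisation; calls rest on plate z-scores that were not deposited; ratio present for only 364 wells.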 Unmarked entries are inactive. Reagents against one gene are numbered here. No sequences are given here. The record does not give: the dose of the treatment.

CG10588 → calcium entry signal, replicate 1: 3.41e7; calcium entry signal, replicate 2: 4.91e7; resting calcium signal, replicate 1: 1.58e7; resting calcium signal, replicate 2: 2.18e7
ATPsynbeta (ATP synthase, beta subunit) → calcium entry signal, replicate 1: 4.69e7; calcium entry signal, replicate 2: 3.95e7; entry to resting ratio: 1.9; resting calcium signal, replicate 1: 2.52e7; resting calcium signal, replicate 2: 2.21e7
Dlish (Dachs ligand with SH3s) → calcium entry signal, replicate 1: 3.96e7; calcium entry signal, replicate 2: 5.10e7; resting calcium signal, replicate 1: 1.83e7; resting calcium signal, replicate 2: 2.51e7
mora (morgana) → calcium entry signal, replicate 1: 4.60e7; calcium entry signal, replicate 2: 5.02e7; resting calcium signal, replicate 1: 2.46e7; resting calcium signal, replicate 2: 2.04e7
CG10232 → calcium entry signal, replicate 1: 4.00e7; calcium entry signal, replicate 2: 3.85e7; resting calcium signal, replicate 1: 2.03e7; resting calcium signal, replicate 2: 1.87e7
Eig71Ea (Ecdysone-induced gene 71Ea) → calcium entry signal, replicate 1: 4.02e7; calcium entry signal, replicate 2: 4.94e7; resting calcium signal, replicate 1: 1.82e7; resting calcium signal, replicate 2: 2.16e7

Targets above whose gene name begins with C or c:
CG10588 → calcium entry signal, replicate 1: 3.41e7; calcium entry signal, replicate 2: 4.91e7; resting calcium signal, replicate 1: 1.58e7; resting calcium signal, replicate 2: 2.18e7
CG10232 → calcium entry signal, replicate 1: 4.00e7; calcium entry signal, replicate 2: 3.85e7; resting calcium signal, replicate 1: 2.03e7; resting calcium signal, replicate 2: 1.87e7

Continued.
Aprt (Adenine phosphoribosyltransferase) → calcium entry signal, replicate 1: 2.49e7; calcium entry signal, replicate 2: 3.17e7; resting calcium signal, replicate 1: 1.40e7; resting calcium signal, replicate 2: 1.53e7
CG10283 → calcium entry signal, replicate 1: 3.76e7; resting calcium signal, replicate 1: 1.76e7
CG32772 #1 → calcium entry signal, replicate 1: 3.19e7; calcium entry signal, replicate 2: 3.22e7; resting calcium signal, replicate 1: 1.71e7; resting calcium signal, replicate 2: 1.87e7
CG32772 #2 → calcium entry signal, replicate 1: 2.53e7; calcium entry signal, replicate 2: 2.16e7; resting calcium signal, replicate 1: 1.15e7; resting calcium signal, replicate 2: 1.03e7
CG32772 #3 → calcium entry signal, replicate 1: 3.25e7; calcium entry signal, replicate 2: 4.77e7; resting calcium signal, replicate 1: 1.67e7; resting calcium signal, replicate 2: 2.31e7
Fbw5 (F-box and WD repeat domain containing 5) → calcium entry signal, replicate 1: 3.90e7; calcium entry signal, replicate 2: 3.71e7; resting calcium signal, replicate 1: 1.94e7; resting calcium signal, replicate 2: 1.71e7
